# About 3,700 (1.2%) of roughly 300,000 compounds were called active. Inconclusive results, whose numbers are uncertain, are shown with a selection of clear calls. Calls come from the whole dose curve; tested in HEK293 cells. A potency beside an inconclusive call is a rough fit, not a confirmed value.
# Assay: qHTS for Inhibitors of binding or entry into cells for Lassa Virus; note: nearly all actives have a fitted effect of over 50% in size
# Settings: Lassa virus pseudotype entry inhibition, cell reporter; activity change, negative = inhibition: at 37.9 µM (top of the series) unless noted
# % is set by controls: 0 for no effect and ±100 for the full control effect; potency is the fitted concentration of half-maximal effect.
SMILES,Potency,"activity change, negative = inhibition"
Clc1ccc(OCCCN2CCCC2)cc1Cl,"inconclusive: 29.1 µM [inhibitor, partial curve, poor fit]",–
FC(F)(F)c1ccc(-n2ccnc2)nc1,inactive,–
NC(=O)C1CCN(c2nc(-c3ccc(Br)cc3)cs2)CC1,"inconclusive: 1.26 µM [activator, single point]",–
CNC(=S)NNC(=O)c1cccn(Cc2cccc(C(F)(F)F)c2)c1=O,"inconclusive: 0.447 µM [inhibitor, partial curve, poor fit]",–
Cc1nc2nc(-c3cccs3)cn2nc1C,active: 10.3 µM,–
COc1ccccc1CNC(=O)C1CCN(S(=O)(=O)c2cccc3nonc23)CC1,"inconclusive: 6.31 µM [inhibitor, single point]",–
CC(=O)c1cccc(NC(=O)Nc2ccc(C)cc2)c1,"inconclusive: 35.5 µM [inhibitor, single point]",–
Cc1c(C(=O)N2CCOCC2)sc(NC(=O)CCl)c1C#N,inactive,–
CCOC(=O)CCn1nc(-c2ccc(Cl)cc2)cc1N,inactive,–
O=C(c1ccc(C#CC2(O)CCCCC2)cc1)N1CCN(C(c2ccccc2)c2ccccc2)CC1,"inconclusive: 14.1 µM [inhibitor, partial curve, poor fit]",–
CSc1ccccc1NC(=O)c1ccc(Cl)s1,"inconclusive: 20.6 µM [activator, single point]",–
CCc1ccn2cc(-c3ccc4c(c3)OCO4)nc2c1,active: 0.891 µM,–
Cc1ccc(CNC(=O)c2ccc3c(c2)N(Cc2cccc(Cl)c2)C(=O)CS3)cc1,inactive,–
CCn1c(=O)c([N+](=O)[O-])c(NCCc2ccccc2)c2ccccc21,"inconclusive: 8.91 µM [inhibitor, partial curve, poor fit]",–
CCOc1cc(/C=N/O)cc(Br)c1OCC(=O)NCc1ccccc1,inactive,–
Cc1cccc(NC(=O)Cn2nc(N3CCN(c4ccccc4)CC3)ccc2=O)c1C,"inconclusive: 6.31 µM [activator, single point]",–
COc1ccccc1OCc1ccc(C(=O)Nc2ccc(C)c(C)c2)o1,"inconclusive: 35.5 µM [inhibitor, single point]",–
Cc1ccc(C(C)C)c(OCC(=O)Nc2ccc3c(c2)nc(CN2CCCC2)n3C)c1,"inconclusive: 35.5 µM [inhibitor, single point]",–
Cc1ccc(C(=O)N(CCN(C)C)CC2CCCN(Cc3ccccc3F)C2)cc1C (stereo unspecified),"inconclusive: 15.8 µM [inhibitor, partial curve, poor fit]",–
CCn1cnc2c1c(=O)n(Cc1csc(-c3ccccc3)n1)c(=O)n2Cc1ccccc1,"inconclusive: 35.5 µM [inhibitor, single point]",–
COc1ccccc1CNc1nc(-c2ccco2)nn1S(=O)(=O)c1ccc(Cl)cc1,inactive,–
COc1cc(C(=O)Nc2ccc(-c3cc(C(F)(F)F)nn3-c3ccccc3)cc2)cc(OC)c1OC,"inconclusive: 11.2 µM [inhibitor, partial curve]",–

# Entries above containing bromine, in the order listed:
SMILES,Potency,"activity change, negative = inhibition"
NC(=O)C1CCN(c2nc(-c3ccc(Br)cc3)cs2)CC1,"inconclusive: 1.26 µM [activator, single point]",–
CCOc1cc(/C=N/O)cc(Br)c1OCC(=O)NCc1ccccc1,inactive,–

# Entries of single compounds, quoted from the list.
# CNC(=S)NNC(=O)c1cccn(Cc2cccc(C(F)(F)F)c2)c1=O reads Potency: inconclusive: 0.447 µM [inhibitor, partial curve, poor fit]
# CCOc1cc(/C=N/O)cc(Br)c1OCC(=O)NCc1ccccc1 reads Potency: inactive

# (more compounds)

SMILES,Potency,"activity change, negative = inhibition"
CCOc1ccc(NC(=O)C2=C(C)NC(=S)NC2c2ccc(O)c(OC)c2)cc1 (stereo unspecified),"inconclusive: 1.12 µM [inhibitor, single point]",–
COc1ccc(-c2ccc(CN3C(C(C)C)C(=O)N(Cc4cn(CCC5OCCO5)nn4)CCS3(=O)=O)cc2)cn1 (stereo unspecified),inactive,–
O=C(c1ccc(S(=O)(=O)N2CCCCC2)cc1)N1CCCc2ccccc21,"inconclusive: 18.3 µM [inhibitor, partial curve]",–
Cc1[nH]c2ccccc2c1/C=N/NC(=O)CNC(=O)c1cccs1,"inconclusive: 8.91 µM [activator, partial curve, poor fit]",–
Nc1nc2nccc(-c3cccnc3)n2n1,"inconclusive: 14.1 µM [activator, partial curve, poor fit]",–
Cc1ccc(C(=O)N2CCN(c3ccccc3F)CC2)cc1NC(=O)c1nsc2ccccc12,"inconclusive: 35.5 µM [inhibitor, single point]",–
O=S(=O)(/C=C/c1ccccc1)Oc1ccccc1,"inconclusive: 16.4 µM [inhibitor, partial curve, poor fit]",–
CCn1cc(C(=O)O)c(=O)c2cc(S(=O)(=O)N3CCCCCC3)ccc21,"inconclusive: 14.1 µM [activator, single point]",–
CCOc1ccc(/C=C/C(=O)NC2CCCCC2)cc1,inactive,–
COc1ccc2oc(C(=O)N3CCN(S(=O)(=O)c4cccc([N+](=O)[O-])c4)CC3)c(C)c2c1,inactive,–
C=C(C)CNC(=S)NNC(=O)CCn1c2cc(Cl)ccc2c2ccc(Cl)cc21,inactive,–
CCCCN(CC)CCCNC(=O)c1cn(C)c2ccc(S(=O)(=O)N(C)C3CCCCC3)cc2c1=O,"inconclusive: 11.2 µM [inhibitor, single point]",–
CC(=O)Nc1nc(NC(=O)C(Cl)(Cl)Cl)n(-c2ccccc2)n1,inactive,–
COCC(C)n1c(C)cc(C(=O)COc2ccc(S(=O)(=O)N3CCOCC3)cc2Cl)c1C (stereo unspecified),"inconclusive: 29.1 µM [inhibitor, single point]",–
C=CCNc1oc(/C=C/c2ccccc2)nc1C#N,"inconclusive: 0.206 µM [activator, full curve]",–
C=C1C(=O)C2=CC1CCC(=O)C1(C)CCC(OC(C)=O)C(C)(C)C1CC2O (stereo unspecified),active: 12.6 µM,–
O=C(NCc1ccc(F)cc1)C1CCN(C(=O)c2cnn(-c3ccccc3)c2-n2cccc2)CC1,"inconclusive: 6.31 µM [inhibitor, partial curve, poor fit]",–
Cc1ccc(-c2nc(NC(=O)c3cc(C(C)(C)C)nn3C)sc2C)cc1Cl,"inconclusive: 10 µM [inhibitor, partial curve, poor fit]",–
O=C(Nc1ncc(Cc2cccc(Cl)c2)s1)C1CCCO1 (stereo unspecified),"inconclusive: 0.73 µM [activator, full curve, poor fit]",–
COc1ccc(Br)cc1CN(C)CC(=O)Nc1cc([N+](=O)[O-])ccc1OC,"inconclusive: 1.58 µM [inhibitor, partial curve, poor fit]",–
COc1ccc(OC)c(-c2cc(C3CCN(c4cc(Cl)nc(N)n4)CC3)[nH]n2)c1,"inconclusive: 12.6 µM [inhibitor, partial curve, poor fit]",–
COc1ccccc1CCNC(=O)c1cc2ccccn2n1,"inconclusive: 5.62 µM [activator, partial curve, poor fit]",–

SMILES,Potency,"activity change, negative = inhibition"
Nc1c(Br)cc2c([nH]c(=O)c3ccccc32)c1Br,inactive,–
Cc1ccc2c(N)c(C#N)sc2n1,"inconclusive: 3.66 µM [inhibitor, partial curve, poor fit]",–
CCCN1C(=O)CN(C2CCCCCC2)C(=O)C1c1ccc(OCC)c(OC)c1 (stereo unspecified),–,inconclusive: 16.8% [activator] [at 46.1 µM]
CN(Cc1ccc(F)cc1)C(=O)c1cccc(S(=O)(=O)NCc2ccccc2)c1,"inconclusive: 31.6 µM [inhibitor, partial curve, poor fit]",–
Cc1ccc(S(=O)(=O)N2CC=C(C(=O)NCCC(C)C)CC2)cc1,"inconclusive: 11.6 µM [inhibitor, partial curve, poor fit]",–
O=C(NN=C1CCCCCC1)c1ccc(Cl)s1,inactive,–
Cc1cc(Nc2ccc([N+](=O)[O-])cc2)nc2ccccc12,"inconclusive: 6.31 µM [activator, partial curve, poor fit]",–
CC(=O)NCCc1ccc(S(=O)(=O)Nc2ccc3c(c2)OCCO3)cc1,inactive,–
CCCCS(=O)(=O)C(=C1Nc2ccccc2N1)S(=O)(=O)CCCC,inactive,–
Cc1cc(C)nc(S/C=C/C(=O)c2ccccc2)n1,"inconclusive: 35.5 µM [inhibitor, single point]",–
CC1CN(Cc2c(O)ccc3c(=O)c(-c4ccccc4)coc23)CC(C)O1 (stereo unspecified),inactive,–
CN(C(=O)Nc1cn(C)c(=O)c2ccccc12)c1ccccc1,inactive,–
O=C(Nc1ccc2ccccc2c1)/C(=C\c1ccc2c(c1)OCO2)NC(=O)c1ccco1,"inconclusive: 1.26 µM [activator, single point]",–
CCc1c(C#N)c(N)nc(SCC(=O)OCc2ccccc2)c1C#N,"inconclusive: 0.184 µM [inhibitor, full curve, poor fit]",–
COc1ccc2[nH]c(C(=O)N3CCC(Cc4ccccc4)CC3)cc2c1,"inconclusive: 8.91 µM [inhibitor, partial curve, poor fit]",–
Cc1c(NC(=O)c2cc3nc(-c4ccc(Br)cc4)cc(C(F)(F)F)n3n2)c(=O)n(-c2ccccc2)n1C,"inconclusive: 29.1 µM [inhibitor, single point]",–
CN(CC(=O)Nc1cccc(F)c1)CC(=O)Nc1cccc(S(=O)(=O)N(C)c2ccccc2)c1,"inconclusive: 35.5 µM [inhibitor, partial curve, poor fit]",–
Cc1ccc(C(=O)/C=C/c2c(C)nn(-c3ccccc3)c2Cl)cc1,"inconclusive: 35.5 µM [inhibitor, single point]",–
COc1ccc(C)cc1NCc1cc(=O)oc2cc(-c3ccccc3)c(O)cc12,inactive,–
O=C(C1CCN(CC2CC=CCC2)CC1)N(CCc1ccccc1)Cc1ccccc1 (stereo unspecified),"inconclusive: 18.4 µM [inhibitor, partial curve, poor fit]",–
COC(=O)Nc1nc2ccc(-c3n[nH]c(=O)c4ccccc34)cc2[nH]1,"inconclusive: 3.66 µM [inhibitor, full curve, poor fit]",–
Cc1cc(C)cc(NC(=O)CSc2ccc(-c3ccccn3)nn2)c1,"inconclusive: 10 µM [inhibitor, partial curve]",–

# Source: PubChem BioAssay AID540256 (National Center for Advancing Translational Sciences (NCATS), 2011)
